Measurements published in the supplement of paper PMC12067093, “Discovery and optimisation of a covalent ligand for TRIM25 and its application to targeted protein ubiquitination” (Chemical Science, 2025).
Some of the results follow.

Sequences of proteins named here, by UniProt entry; tags and fusion partners are left off. A change or cut given only in a name is not applied to a line headed by its entry.
UniProt Q9BZQ8: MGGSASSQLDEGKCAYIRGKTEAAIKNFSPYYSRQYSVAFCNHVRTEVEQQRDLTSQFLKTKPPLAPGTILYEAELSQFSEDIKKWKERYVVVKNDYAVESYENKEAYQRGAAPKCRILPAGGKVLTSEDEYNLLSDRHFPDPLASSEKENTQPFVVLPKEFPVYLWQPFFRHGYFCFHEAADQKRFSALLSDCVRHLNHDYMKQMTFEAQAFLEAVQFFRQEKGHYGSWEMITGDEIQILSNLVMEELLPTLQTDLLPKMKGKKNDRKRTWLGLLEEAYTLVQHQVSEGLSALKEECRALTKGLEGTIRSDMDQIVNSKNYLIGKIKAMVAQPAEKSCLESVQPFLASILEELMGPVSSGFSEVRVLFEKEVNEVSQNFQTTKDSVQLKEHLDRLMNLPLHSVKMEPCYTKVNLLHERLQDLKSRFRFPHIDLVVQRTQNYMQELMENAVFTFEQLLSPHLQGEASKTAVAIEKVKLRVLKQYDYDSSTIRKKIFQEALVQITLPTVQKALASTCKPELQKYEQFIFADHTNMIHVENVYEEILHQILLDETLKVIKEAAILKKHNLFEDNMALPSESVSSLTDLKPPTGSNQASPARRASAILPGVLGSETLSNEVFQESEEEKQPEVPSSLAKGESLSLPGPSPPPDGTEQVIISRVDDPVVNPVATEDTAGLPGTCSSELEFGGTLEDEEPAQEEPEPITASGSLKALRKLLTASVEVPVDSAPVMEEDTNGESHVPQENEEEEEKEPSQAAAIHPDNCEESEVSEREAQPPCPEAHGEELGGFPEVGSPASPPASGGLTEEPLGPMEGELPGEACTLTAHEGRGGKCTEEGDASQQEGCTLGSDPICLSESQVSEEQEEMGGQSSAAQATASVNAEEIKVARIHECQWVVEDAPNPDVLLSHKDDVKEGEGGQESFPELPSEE
UniProt Q96A65: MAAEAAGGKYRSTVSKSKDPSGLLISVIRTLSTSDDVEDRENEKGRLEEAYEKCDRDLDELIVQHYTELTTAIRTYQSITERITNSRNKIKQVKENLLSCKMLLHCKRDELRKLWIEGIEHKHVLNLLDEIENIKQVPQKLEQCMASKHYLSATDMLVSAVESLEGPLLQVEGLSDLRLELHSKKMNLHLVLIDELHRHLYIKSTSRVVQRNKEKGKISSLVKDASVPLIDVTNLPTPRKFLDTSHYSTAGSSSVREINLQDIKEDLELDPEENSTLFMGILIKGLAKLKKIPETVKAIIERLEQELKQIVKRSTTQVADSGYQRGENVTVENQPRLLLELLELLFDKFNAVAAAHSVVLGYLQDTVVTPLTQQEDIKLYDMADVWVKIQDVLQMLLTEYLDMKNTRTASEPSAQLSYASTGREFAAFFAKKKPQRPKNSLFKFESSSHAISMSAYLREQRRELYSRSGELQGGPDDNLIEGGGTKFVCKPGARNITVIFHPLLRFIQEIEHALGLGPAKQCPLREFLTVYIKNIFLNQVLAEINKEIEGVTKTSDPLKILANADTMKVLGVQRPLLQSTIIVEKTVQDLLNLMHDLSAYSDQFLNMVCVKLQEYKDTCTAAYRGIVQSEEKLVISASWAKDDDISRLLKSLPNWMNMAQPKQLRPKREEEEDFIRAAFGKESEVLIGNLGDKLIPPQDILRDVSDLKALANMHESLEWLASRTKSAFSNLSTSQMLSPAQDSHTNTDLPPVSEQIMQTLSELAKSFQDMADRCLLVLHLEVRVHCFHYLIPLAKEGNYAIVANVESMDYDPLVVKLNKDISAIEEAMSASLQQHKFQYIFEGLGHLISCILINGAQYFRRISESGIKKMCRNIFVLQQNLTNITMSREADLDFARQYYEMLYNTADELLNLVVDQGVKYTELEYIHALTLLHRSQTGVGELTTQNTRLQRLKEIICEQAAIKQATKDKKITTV
UniProt Q01469, whole entry, looked up: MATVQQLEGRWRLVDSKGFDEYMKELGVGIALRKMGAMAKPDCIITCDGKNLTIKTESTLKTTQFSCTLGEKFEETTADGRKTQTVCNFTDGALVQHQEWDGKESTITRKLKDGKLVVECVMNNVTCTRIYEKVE
UniProt Q96HE7: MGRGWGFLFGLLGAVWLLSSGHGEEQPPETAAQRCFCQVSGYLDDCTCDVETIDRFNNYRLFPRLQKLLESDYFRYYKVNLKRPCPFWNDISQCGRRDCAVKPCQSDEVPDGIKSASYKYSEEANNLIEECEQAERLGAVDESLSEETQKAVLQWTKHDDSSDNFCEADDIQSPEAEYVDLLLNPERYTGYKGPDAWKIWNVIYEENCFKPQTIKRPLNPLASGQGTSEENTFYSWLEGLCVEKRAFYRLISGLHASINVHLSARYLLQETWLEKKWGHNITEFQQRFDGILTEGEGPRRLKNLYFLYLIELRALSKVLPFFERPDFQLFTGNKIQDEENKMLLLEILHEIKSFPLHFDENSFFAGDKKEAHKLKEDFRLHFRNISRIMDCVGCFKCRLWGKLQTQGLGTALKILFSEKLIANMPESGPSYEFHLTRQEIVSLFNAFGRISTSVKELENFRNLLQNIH
UniProt Q15910, whole entry, looked up: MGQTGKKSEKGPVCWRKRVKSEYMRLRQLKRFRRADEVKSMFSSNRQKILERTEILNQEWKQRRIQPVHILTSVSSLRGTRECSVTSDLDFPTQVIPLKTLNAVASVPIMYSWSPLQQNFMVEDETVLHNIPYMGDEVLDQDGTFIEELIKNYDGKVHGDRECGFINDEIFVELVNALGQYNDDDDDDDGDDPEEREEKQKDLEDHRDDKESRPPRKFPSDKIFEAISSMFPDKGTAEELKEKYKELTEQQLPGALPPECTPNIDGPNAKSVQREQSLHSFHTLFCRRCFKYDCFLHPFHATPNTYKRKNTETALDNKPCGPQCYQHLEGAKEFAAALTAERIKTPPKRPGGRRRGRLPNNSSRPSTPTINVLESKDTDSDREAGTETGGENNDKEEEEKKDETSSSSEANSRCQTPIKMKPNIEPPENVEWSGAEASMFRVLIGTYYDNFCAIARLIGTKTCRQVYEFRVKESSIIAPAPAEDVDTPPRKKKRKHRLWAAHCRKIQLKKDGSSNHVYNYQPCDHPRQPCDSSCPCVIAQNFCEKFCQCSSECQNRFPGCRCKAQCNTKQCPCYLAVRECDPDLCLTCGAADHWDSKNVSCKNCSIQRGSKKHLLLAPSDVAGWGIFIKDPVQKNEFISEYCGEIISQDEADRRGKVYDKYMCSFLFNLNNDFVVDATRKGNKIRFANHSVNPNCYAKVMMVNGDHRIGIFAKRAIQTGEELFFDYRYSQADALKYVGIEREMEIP
UniProt Q9BSJ8: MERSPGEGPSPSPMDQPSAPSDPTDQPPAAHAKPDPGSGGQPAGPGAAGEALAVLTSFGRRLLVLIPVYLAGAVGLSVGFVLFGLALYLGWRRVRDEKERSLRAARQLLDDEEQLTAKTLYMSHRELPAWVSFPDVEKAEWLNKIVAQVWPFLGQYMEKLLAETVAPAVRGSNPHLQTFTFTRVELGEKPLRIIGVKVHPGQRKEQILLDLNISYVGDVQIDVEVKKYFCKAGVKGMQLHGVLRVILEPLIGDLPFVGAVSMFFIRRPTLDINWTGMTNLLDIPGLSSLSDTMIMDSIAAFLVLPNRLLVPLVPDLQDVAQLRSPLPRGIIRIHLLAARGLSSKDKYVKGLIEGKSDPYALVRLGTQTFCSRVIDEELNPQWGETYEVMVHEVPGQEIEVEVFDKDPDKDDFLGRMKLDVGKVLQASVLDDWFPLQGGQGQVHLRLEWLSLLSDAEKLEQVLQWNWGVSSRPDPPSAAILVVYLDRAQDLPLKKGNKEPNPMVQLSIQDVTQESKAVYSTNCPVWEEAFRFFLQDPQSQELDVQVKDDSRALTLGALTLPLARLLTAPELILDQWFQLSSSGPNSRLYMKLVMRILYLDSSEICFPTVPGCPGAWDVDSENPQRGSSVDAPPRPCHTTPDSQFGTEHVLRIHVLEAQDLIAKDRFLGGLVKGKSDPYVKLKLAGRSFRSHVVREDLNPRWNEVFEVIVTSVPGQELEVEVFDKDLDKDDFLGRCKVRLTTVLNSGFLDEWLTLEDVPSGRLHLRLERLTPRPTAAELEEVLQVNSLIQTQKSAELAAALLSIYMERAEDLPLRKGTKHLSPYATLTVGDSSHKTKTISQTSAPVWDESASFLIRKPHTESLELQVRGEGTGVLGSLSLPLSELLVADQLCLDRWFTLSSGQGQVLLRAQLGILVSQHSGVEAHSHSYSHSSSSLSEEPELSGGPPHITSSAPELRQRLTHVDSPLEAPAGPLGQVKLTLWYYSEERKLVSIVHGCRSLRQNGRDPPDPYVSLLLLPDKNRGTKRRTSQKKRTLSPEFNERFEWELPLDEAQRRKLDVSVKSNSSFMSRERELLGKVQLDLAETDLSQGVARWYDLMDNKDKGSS
UniProt Q15024, whole entry, looked up: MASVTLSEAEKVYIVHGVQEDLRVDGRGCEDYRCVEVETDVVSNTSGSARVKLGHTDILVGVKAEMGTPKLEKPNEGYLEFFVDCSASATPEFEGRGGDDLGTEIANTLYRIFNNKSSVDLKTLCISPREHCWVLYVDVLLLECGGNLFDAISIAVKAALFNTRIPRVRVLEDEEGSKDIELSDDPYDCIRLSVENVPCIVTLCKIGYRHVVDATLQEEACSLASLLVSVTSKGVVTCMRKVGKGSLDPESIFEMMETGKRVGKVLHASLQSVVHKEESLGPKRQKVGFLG
UniProt Q9UPT5: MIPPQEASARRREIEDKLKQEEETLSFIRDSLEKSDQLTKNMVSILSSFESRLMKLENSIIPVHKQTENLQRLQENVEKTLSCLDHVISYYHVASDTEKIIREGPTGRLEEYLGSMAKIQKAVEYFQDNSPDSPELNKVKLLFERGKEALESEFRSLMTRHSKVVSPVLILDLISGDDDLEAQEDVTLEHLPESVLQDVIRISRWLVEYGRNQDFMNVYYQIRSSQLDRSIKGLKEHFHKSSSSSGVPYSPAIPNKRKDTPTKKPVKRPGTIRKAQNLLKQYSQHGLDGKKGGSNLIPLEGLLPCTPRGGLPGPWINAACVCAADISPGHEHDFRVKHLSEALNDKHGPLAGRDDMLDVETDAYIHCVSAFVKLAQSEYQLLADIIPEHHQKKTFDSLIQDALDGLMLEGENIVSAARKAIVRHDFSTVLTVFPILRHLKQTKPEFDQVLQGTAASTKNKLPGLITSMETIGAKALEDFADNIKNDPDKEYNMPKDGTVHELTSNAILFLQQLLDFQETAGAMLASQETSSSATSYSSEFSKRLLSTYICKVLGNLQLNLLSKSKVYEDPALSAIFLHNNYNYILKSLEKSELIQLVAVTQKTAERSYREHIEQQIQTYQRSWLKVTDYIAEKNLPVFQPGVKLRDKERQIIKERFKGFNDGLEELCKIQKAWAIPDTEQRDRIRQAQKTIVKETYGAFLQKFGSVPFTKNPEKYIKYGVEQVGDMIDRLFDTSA
UniProt O00471: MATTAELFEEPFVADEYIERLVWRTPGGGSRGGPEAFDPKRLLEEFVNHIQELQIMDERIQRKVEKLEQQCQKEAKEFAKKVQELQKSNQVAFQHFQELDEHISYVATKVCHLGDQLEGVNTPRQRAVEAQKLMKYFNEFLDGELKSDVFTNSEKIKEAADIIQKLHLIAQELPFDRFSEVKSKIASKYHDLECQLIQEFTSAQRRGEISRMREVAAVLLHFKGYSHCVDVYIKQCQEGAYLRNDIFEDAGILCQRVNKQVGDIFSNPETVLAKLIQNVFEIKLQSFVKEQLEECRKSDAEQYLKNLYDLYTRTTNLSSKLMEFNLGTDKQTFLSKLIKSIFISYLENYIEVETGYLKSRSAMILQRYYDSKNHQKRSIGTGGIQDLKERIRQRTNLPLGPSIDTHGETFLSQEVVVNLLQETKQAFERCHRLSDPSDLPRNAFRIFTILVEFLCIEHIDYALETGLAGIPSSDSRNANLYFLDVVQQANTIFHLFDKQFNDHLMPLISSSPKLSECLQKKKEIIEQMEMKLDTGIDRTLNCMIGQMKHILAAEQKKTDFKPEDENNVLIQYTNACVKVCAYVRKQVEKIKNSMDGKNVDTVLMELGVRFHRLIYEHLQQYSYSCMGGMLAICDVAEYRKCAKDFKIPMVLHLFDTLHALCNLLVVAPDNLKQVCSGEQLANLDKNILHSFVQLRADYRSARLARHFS
UniProt Q9NRY5: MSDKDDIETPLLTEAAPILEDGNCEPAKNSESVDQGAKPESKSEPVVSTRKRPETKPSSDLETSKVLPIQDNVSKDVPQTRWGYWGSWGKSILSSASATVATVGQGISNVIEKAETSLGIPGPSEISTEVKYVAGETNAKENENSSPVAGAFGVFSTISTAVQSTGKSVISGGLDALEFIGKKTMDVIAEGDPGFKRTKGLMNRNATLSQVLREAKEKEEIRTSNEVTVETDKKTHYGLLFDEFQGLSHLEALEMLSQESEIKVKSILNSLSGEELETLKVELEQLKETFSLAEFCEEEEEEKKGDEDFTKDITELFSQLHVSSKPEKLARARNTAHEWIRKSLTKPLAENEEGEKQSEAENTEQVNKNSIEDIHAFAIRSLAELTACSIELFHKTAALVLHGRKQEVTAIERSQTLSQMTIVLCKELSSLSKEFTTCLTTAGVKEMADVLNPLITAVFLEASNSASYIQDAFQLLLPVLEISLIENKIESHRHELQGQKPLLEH

Compound: Cc1cc(ccc1-c1ccccc1)C(=O)N1CCCN(CC1)C(=O)CCl [compound 10]
Test: probe-labelled cysteine peptide fold change vs DMSO (competition) (log2 fold change); higher = less target engagement (more negative = stronger competition)
Conditions: THP-1, incubation time: 4 h
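Note: competitive profiling in live THP-1 cells: cysteine peptides tagged with an iodoacetamide desthiobiotin (IA-DTB) probe, intensity after compound treatment relative to DMSO-treated cells.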

Target	probe-labelled cysteine peptide fold change (10 µM)	probe-labelled cysteine peptide fold change (50 µM)
ETFDH_Q16134_387_LTFPGGLLIGCSPGFMNVPK (UniProt Q16134)	-0.209	-0.0769
FAM129A_Q9BZQ8_177_HGYFCFHEAADQK (UniProt Q9BZQ8)	-0.0119	0.136
EXOC4_Q96A65_957_EIICEQAAIK (UniProt Q96A65)	-0.297	0.000253
FAM102B_Q5T8I3_53_EVVQANCVR (UniProt Q5T8I3)	-0.0937	0.333
FABP5_Q01469_120+127_LVVECVMNNVTCTR (UniProt Q01469)	-0.0383	-0.868
ERO1A_Q96HE7_394_IMDCVGCFK (UniProt Q96HE7)	0.0172	0.0529
ESD_P10768_158_MSIFGHSMGGHGALICALK (UniProt P10768)	0.0855	-0.322
EZH2_Q15910_83_ECSVTSDLDFPTQVIPLK (UniProt Q15910)	0.0829	0.0211
F2_P00734_391_KSPQELLCGASLISDR (UniProt P00734)	-0.34	-0.399
ERGIC3_Q9Y282_159_CCNTCEDVR (UniProt Q9Y282)	-0.433	-0.098
ESYT1_Q9BSJ8_522_AVYSTNCPVWEEAFR (UniProt Q9BSJ8)	0.00976	0.117
EZH2_Q15910_503_LWAAHCR (UniProt Q15910)	-0.194	-0.482
EXOSC7_Q15024_85_PNEGYLEFFVDCSASATPEFEGR (UniProt Q15024)	0.35	0.666
FAM120B_Q96EK7_700_RLDTLLACFNLSSSR (UniProt Q96EK7)	0.0425	0.00481
EXOC6_Q8TAG9_135_LQLCLPVLEMYSK (UniProt Q8TAG9)	0.263	0.247
EXOSC5_Q9NQT4_209_GLYSDTELQQCLAAAQAASQHVFR (UniProt Q9NQT4)	0.181	0.385
ETFB_P38117_66_EVIAVSCGPAQCQETIR (UniProt P38117)	-0.0523	-0.0417
ETV6_P41212_8_SETPAQCSIK (UniProt P41212)	-0.338	-0.304

Not a retest: entries from further up.
Target	probe-labelled cysteine peptide fold change (10 µM)	probe-labelled cysteine peptide fold change (50 µM)
FABP5_Q01469_120+127_LVVECVMNNVTCTR (UniProt Q01469)	-0.0383	-0.868
ERO1A_Q96HE7_394_IMDCVGCFK (UniProt Q96HE7)	0.0172	0.0529

(further entries)

Target	probe-labelled cysteine peptide fold change (10 µM)	probe-labelled cysteine peptide fold change (50 µM)
FAM129A_Q9BZQ8_194_FSALLSDCVR (UniProt Q9BZQ8)	0.00902	0.0738
FABP5_Q01469_43_KMGAMAKPDCIITCDGK (UniProt Q01469)	-0.1	-0.767
ESCO2_Q56NI9_263_CLVLEEK (UniProt Q56NI9)	-0.0192	-0.162
FABP5_Q01469_120_LVVECVMNNVTCTR (UniProt Q01469)	-0.132	-0.796
EXOC7_Q9UPT5_367_HGPLAGRDDMLDVETDAYIHCVSAFVK (UniProt Q9UPT5)	-0.0432	-0.2
FAH_P16930_193_RPMGQMKPDDSKPPVYGACK (UniProt P16930)	0.00353	-0.318
ERO1B_Q86YB8_165_YDDSRDHFCELDDERSPAAQYVDLLLNPER (UniProt Q86YB8)	-0.193	-0.184
EXOC7_Q9UPT5_667_GFNDGLEELCK (UniProt Q9UPT5)	-0.0815	0.085
FAM129A_Q9BZQ8_41_QYSVAFCNHVR (UniProt Q9BZQ8)	-0.0973	-0.0411
EZH2_Q15910_260_ELTEQQLPGALPPECTPNIDGPNAK (UniProt Q15910)	-0.164	0.256
EXOC1_Q9NV70_304+314_GIEACTNAADALLQCMNVALRPGHDLLLAVK (UniProt Q9NV70)	0.159	0.0647
ERGIC1_Q969X5_115_IPLNNGAGCR (UniProt Q969X5)	0.187	0.156
ETFA_P13804_53_LGGEVSCLVAGTK (UniProt P13804)	-0.162	-0.143
EXOSC6_Q5RKV6_117_APPGGCEER (UniProt Q5RKV6)	-0.34	0.392
EXOSC7_Q15024_189_VLEDEEGSKDIELSDDPYDCIR (UniProt Q15024)	0.0352	-0.579
EXOC5_O00471_236_QCQEGAYLR (UniProt O00471)	0.0713	0.221
FAM114A2_Q9NRY5_388_SLAELTACSIELFHK (UniProt Q9NRY5)	0.16	0.23
FAM114A2_Q9NRY5_438_EFTTCLTTAGVK (UniProt Q9NRY5)	0.19	0.0888
